Experimental data from the supplement of paper PMC4604168 (melanoma cell lines).
Some of the results follow. Many values rest on one well or one pass, so single values are uncertain.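 Imaging used 1,536-well plates; nuclei positive for cleaved PARP by antibody were divided by total DNA-stained nuclei to yield the apoptosis fraction. Doses for screening kept most cells viable, and cell lines differ markedly in resting and induced cleaved-PARP levels.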

test system: SkMel28; assay: cleaved PARP positive nuclei fraction relative to DMSO control; melanoma cells; higher = more apoptosis; conditions: library dose: low library concentration; 72 h

Row | SMILES | cleaved PARP positive nuclei fraction [%]
1 | NC(=O)c1ccc(N(C(N)=O)c2c(F)cccc2F)nc1-c1ccc(F)cc1F + O=C(Nc1cccc(Cl)c1)Nc1ncc(CCNc2ncnc3ccsc23)s1 [SNS314] (first compound 0.4 µM, partner dose 0.0008 µM) | 133
2 | Cn1cnc2c(F)c(Nc3ccc(Br)cc3Cl)c(C(=O)NOCCO)cc21 [selumetinib] + Cc1ccc(NC(=O)c2cccc(N(C)C)c2)cc1NC(=O)c1ccc(O)cc1 [ZM336372] (first compound 0.015 µM, partner dose 2 µM) | 302
3 | CS(=O)(=O)c1ccc(C(=O)Nc2ccc(Cl)c(-c3ccccn3)c2)c(Cl)c1 [vismodegib] + NC(=O)Nc1cc(-c2cccc(F)c2)sc1C(=O)N[C@H]1CCCNC1 [AZD7762] (first compound 1 µM, partner dose 0.02 µM) | 75.2
4 | Cn1cnc2c(F)c(Nc3ccc(Br)cc3Cl)c(C(=O)NOCCO)cc21 [selumetinib] + Cc1cc(N2CCOCC2)cc2[nH]c(-c3c(NC[C@@H](O)c4cccc(Cl)c4)cc[nH]c3=O)nc12 [BMS536924] (first compound 0.015 µM, partner dose 0.2 µM) | 127
5 | Cn1cnc2c(F)c(Nc3ccc(Br)cc3Cl)c(C(=O)NOCCO)cc21 [selumetinib] + Oc1nc(-c2ccc(C(F)(F)F)cc2)nc2c1CSCC2 [XAV939] (first compound 0.015 µM, partner dose 2 µM) | 199
6 | COc1ccc(C2=N[C@@H](c3ccc(Cl)cc3)[C@@H](c3ccc(Cl)cc3)N2C(=O)N2CCNC(=O)C2)c(OC(C)C)c1 [Nutlin-3] + Oc1nc(-c2ccc(C(F)(F)F)cc2)nc2c1CSCC2 [XAV939] (first compound 0.1 µM, partner dose 2 µM) | 186
